# Out of some 390,000 compounds screened, about 760 (0.19%) were called active. The inconclusive results got no clear call from the source; some entries with a clear call stand among them for comparison. The call rests on the fitted dose curve; in most records, active means well fitted inhibition curve with a large enough effect; inconclusive means small, poorly fitted or top-dose-only effect; inactive means flat fitted curve, though single readings scatter. Potencies of inconclusive entries are doubtful fits and often do not repeat.
# Assay: qHTS for Inhibitors of Vif-A3F Interactions: qHTS; further: nearly all actives have a fitted effect of over 65% in size; on activity, negative = active: % of control where 0% means no effect
# Conditions: HeLa A3F-eYFP + Vif (tagged APOBEC3F with the HIV-1 protein that degrades it), YFP fluorescence increase; series mostly up to 46.1 µM; activity, negative = active: at the top concentration
# In short: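 HeLa cells stably expressing A3F-eYFP plus Vif, plated and incubated overnight at 37 deg C, then exposed to compounds overnight at 37 deg C. Blocked degradation read as raised yellow fluorescence (Ex 488/Em 500-530).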
# Potency means the concentration at half of the fitted maximal effect.
SMILES,Potency,"activity, negative = active"
C/C(=N\NC(=O)c1ccccc1OCc1ccc(F)cc1)c1ccccn1,"inconclusive: 35.5 µM [inhibitor, single point]",–
COc1ccc(OC)c(C2CC(=O)c3c([nH]c(C(=O)OC(C)C)c3C)C2)c1 (stereo not given),"inconclusive: 2 µM [inhibitor, partial curve, poor fit]",–
Cc1cc(Cn2ccnc2)c(C)c([N+](=O)[O-])c1Cn1ccnc1,"inconclusive: 35.5 µM [inhibitor, single point]",–
Cc1nc2sccn2c(=O)c1S(=O)(=O)Nc1ccc(N2CCOCC2)c(Cl)c1,inactive,–
CCOc1cccc2cc(C(N)=O)c(=NCc3ccccc3)oc12,"inconclusive: 28.2 µM [inhibitor, single point]",–
CCOC(=O)C1Nc2c(F)cc(C)cc2C2c3ccccc3CC12 (stereo not given),"inconclusive: 35.5 µM [inhibitor, single point]",–
O=C(/C=C/c1ccccc1[N+](=O)[O-])c1ccccc1Br,"inconclusive: 3.98 µM [inhibitor, single point]",–
Cc1noc(C)c1COC(=O)CCCNC(=O)c1ccc(Cl)cc1,–,inactive: -1.43%
Cc1[nH][nH]c(=O)c1C(c1c(C)[nH][nH]c1=O)c1cn(Cc2ccc(F)cc2)c2ccccc12,"inconclusive: 35.5 µM [inhibitor, single point]",–
Cc1cc(N/N=C/c2ccc(F)cc2)nc(-n2nc(C)cc2C)n1,"inconclusive: 3.16 µM [inhibitor, partial curve, poor fit]",–
O=C(CN1CCN(S(=O)(=O)N2CCCCC2)CC1)Nc1ccc(Cl)c(Cl)c1,–,inactive: -13%
CCc1ccc(CN(C)C(=O)c2cccc(S(=O)(=O)Nc3ccccc3OC)c2)cc1,"inconclusive: 6.31 µM [inhibitor, single point]",–
COc1ccc(Oc2c(OC)cc([N+](=O)[O-])c3ncccc23)cc1,"inconclusive: 3.55 µM [inhibitor, single point]",–
N#Cc1sc2nc(C3CC3)cc(-c3ccc(Cl)cc3)c2c1N,–,inactive: 1.38%
COc1cccc(/C=C2\SC(=S)N(C(Cc3ccccc3)C(=O)O)C2=O)c1 (stereo not given),–,inactive: 11.8%
COc1cc(NC(=O)c2cccc3c2C(=O)N(C2CCCCC2)C3)cc(OC)c1OC,"inconclusive: 0.794 µM [inhibitor, partial curve, poor fit]",–
O=C1/C(=C\c2ccccc2)CCC/C1=C/c1ccccc1,"inconclusive: 20 µM [inhibitor, single point]",–
CCOC(=O)c1ccc(NC(=O)CC2Sc3ncnn3C2=O)cc1 (stereo not given),–,inactive: -0.278%
CC(C)Oc1ccccc1NC(=O)CSc1nc2ccccc2c(=O)n1C,"inconclusive: 28.2 µM [inhibitor, single point]",–
Cc1ccccc1OCc1ccc(-c2nc(C#N)c(NCc3cccnc3)o2)o1,–,inactive: -16.1%
CCC(C)(C)C1CCC(=NNC(=S)Nc2ccccc2)CC1 (stereo not given),"inconclusive: 35.5 µM [inhibitor, single point]",–
COC(=O)[C@@H](NC(=O)N1CCC(C)CC1)C(C)C,"inconclusive: 6.31 µM [inhibitor, single point]",–
COc1ccc(/C=N/NC(=S)NCC2CCCO2)cc1 (stereo not given),"inconclusive: 35.5 µM [inhibitor, single point]",–
Fc1ccc(NC(=S)Nc2cccc3ccccc23)cc1F,"inconclusive: 35.5 µM [inhibitor, single point]",–

SMILES,Potency,"activity, negative = active"
CC(=O)OC1CCC2C3CCC4=C(CC(F)C(=O)C4)C3CCC12C (stereo not given),"inconclusive: 22.4 µM [inhibitor, single point]",–
CC(C)(C)NC(=O)CN(C(=O)c1snc(C(=O)NC2CCCCC2)c1N)c1ccc(F)cc1,"inconclusive: 6.31 µM [inhibitor, single point]",–
CCNc1nc(NCC)n2c(SCC(=O)Nc3ccccc3F)nnc2n1,–,inactive: 9.74%
O=C(O)c1ccc(CSc2nnc(-c3ccncc3)n2-c2ccc(Br)cc2)cc1,–,inactive: 2.26%
O=C(Nc1ccc(O)cc1)c1ccc2c(c1)C(=O)N(Cc1ccccc1)C2=O,"inconclusive: 15.8 µM [inhibitor, single point]",–
CCCSc1nnc(N2C(=O)C(O)=C(C(=O)c3ccco3)C2c2ccccc2F)s1 (stereo not given),active: 3.16 µM,–
COC(=O)C1=C(COc2ccccc2)NC(=O)NC1c1ccc2ccccc2c1 (stereo not given),"inconclusive: 35.5 µM [inhibitor, single point]",–
COc1ccccc1N1CCN(C(=O)NCc2ccc(Cl)cc2)CC1,"inconclusive: 35.5 µM [inhibitor, single point]",–
COc1ccccc1Cn1cc(C(=O)c2ccc(C)cc2)c(=O)c2cc(C)ccc21,–,inactive: 0.0449%
Cc1ccc(-n2nc(CO)c(C(=O)NCCCc3ccccc3)n2)cc1C,–,inactive: -4.66%
CC1CC(C)CN(C(=O)COC(=O)/C=C/c2ccco2)C1 (stereo not given),–,inactive: 4.1%
CCOc1cc(/C=C/C(=O)c2ccc(OC)c(CN3CCOCC3)c2)cc(Br)c1O,active: 25.1 µM,–
CCOc1ccc2nc(Cl)c(C3CC(c4ccc(OC)cc4)=NN3S(C)(=O)=O)cc2c1 (stereo not given),"inconclusive: 20 µM [inhibitor, partial curve, poor fit]",–
CS(=O)(=O)c1ccc(Cl)c(NC(=O)Cc2c(Cl)cccc2Cl)c1,"inconclusive: 25.1 µM [inhibitor, single point]",–
N=c1n(CC(=O)c2ccc([N+](=O)[O-])cc2)c2ccccc2n1Cc1ccccc1,active: 12.6 µM,–
Cc1ccccc1C(=O)Nc1ccnn1C1CCN(CC2CC=CCC2)CC1 (stereo not given),"inconclusive: 0.562 µM [inhibitor, full curve, poor fit]",–
Cc1cc(NCCCn2ccnc2)n2nc(C)c(-c3ccc(Cl)cc3)c2n1,–,inactive: -14.8%
O=[N+]([O-])c1ccc(SCCc2ccncc2)cc1,inactive,–
O=C(O)CCn1c2ccccc2c2nc3ccccc3nc21,"inconclusive: 35.5 µM [inhibitor, single point]",–
O=C(CSc1nc2ccccc2c(=O)n1Cc1ccco1)NCCN1C(=O)CSC1=O,"inconclusive: 35.5 µM [inhibitor, single point]",–
CCn1c2ccccc2c2c3ncc4cccn4c3ccc21,active: 25.1 µM,–
NC(=O)c1nsc(C(=O)N(CC(=O)NC2CCCCC2)c2ccc(Cl)cc2)c1N,"inconclusive: 35.5 µM [inhibitor, single point]",–
Fc1ccc(-c2ccc(/C=N\n3cnnc3)o2)cc1Cl,"inconclusive: 6.31 µM [inhibitor, partial curve, poor fit]",–
Cc1ccc(/C(=N/Nc2ncnc3ccccc23)C(=O)O)cc1,"inconclusive: 28.2 µM [inhibitor, partial curve, poor fit]",–

SMILES,Potency,"activity, negative = active"
CCN(CC)c1ccc2c(c1)oc(=O)c1c(Cl)cc(=O)oc12,active: 25.1 µM,–
Cc1ccc([N+](=O)[O-])cc1Nc1nc(N2CCOCC2)nc(N2CCOCC2)n1,–,inactive: 7.67%
O=S(=O)(NCCC1=CCCCC1)c1c(Cl)cccc1Cl,"inconclusive: 35.5 µM [inhibitor, single point]",–
CCC(C)c1ccc(NC(=S)NCc2ccccc2OC)cc1 (stereo not given),"inconclusive: 35.5 µM [inhibitor, single point]",–
CCNc1cc(N2CCN(C3CCCCC3)CC2)c2noc3c2c1C(=O)c1ccccc1-3,"inconclusive: 3.98 µM [inhibitor, full curve, poor fit]",–
COc1cccc(N2CCN(C(=O)c3cn(Cc4ccccc4)nc3-c3cccnc3)CC2)c1,–,inactive: -10.9%
O=C(CSc1nnc(-c2c[nH]c3ccccc23)o1)N1c2ccccc2CCc2ccccc21,–,inactive: 0.168%
CC(=O)Nc1ccc(S(=O)(=O)N(C)c2nc3ccccc3nc2Cl)cc1,"inconclusive: 14.1 µM [inhibitor, single point]",–
Cc1cccc(NC(=S)Nc2cccc3ccccc23)c1,"inconclusive: 25.1 µM [inhibitor, single point]",–
O=C(OCCOc1cccc(Cl)c1)c1cc(S(=O)(=O)N2CCOCC2)ccc1F,"inconclusive: 35.5 µM [inhibitor, single point]",–
COC(=O)Nc1ccc2ccc3c(NC(=O)OC)ccc4ccc1c2c43,"inconclusive: 35.5 µM [inhibitor, single point]",–
COCCn1c(C)cc(C2=NNC(=Nc3ccc(Cl)cc3Cl)SC2)c1C,–,inactive: -6.11%
O=C1/C(=C/c2ccc(O)cc2)SC(=S)N1CC1CCCO1 (stereo not given),active: 22.4 µM,–
CCOC(=O)c1ccc(S(=O)(=O)NCCN(CC)CC)cc1,"inconclusive: 7.08 µM [inhibitor, partial curve]",–
CN(CCc1ccccn1)C(=O)CCC1CCCN(C(=O)c2ccccn2)C1 (stereo not given),"inconclusive: 14.1 µM [inhibitor, single point]",–
Cc1nnc(N/N=C/c2ccccc2F)n1N,"inconclusive: 35.5 µM [inhibitor, single point]",–
COC(=O)c1ccc(NC(=O)CC2Nc3cc(C)c(C)cc3NC2=O)cc1 (stereo not given),"inconclusive: 17.8 µM [inhibitor, partial curve, poor fit]",–
CCOc1ccc(S(=O)(=O)Nc2ccc3oc(C)c(C(=O)OC(C)C)c3c2)cc1,"inconclusive: 35.5 µM [inhibitor, single point]",–
COc1cccc(-c2nnc(SCC(=O)N3CCCc4ccccc43)o2)c1,–,inactive: -0.121%
CCC(CC)C(=O)c1c[nH]c(C(=O)NCc2ccccn2)c1,"inconclusive: 3.55 µM [inhibitor, single point]",–
COc1ccc(-c2cc(-c3nnc(COC(=O)C4CC4)o3)c3ccccc3n2)cc1OC,–,inactive: -6.6%
COc1ccc(-c2ccoc2)cc1[C@H]1[C@H]2C=CC[C@@H](C)[C@@H]2C(=O)N1Cc1ccccc1,"inconclusive: 35.5 µM [inhibitor, single point]",–

# Looked up by compound from the list above, 4 records:
SMILES,Potency,"activity, negative = active"
COc1cccc(N2CCN(C(=O)c3cn(Cc4ccccc4)nc3-c3cccnc3)CC2)c1,–,inactive: -10.9%
COc1ccc(-c2ccoc2)cc1[C@H]1[C@H]2C=CC[C@@H](C)[C@@H]2C(=O)N1Cc1ccccc1,"inconclusive: 35.5 µM [inhibitor, single point]",–
O=C(CSc1nnc(-c2c[nH]c3ccccc23)o1)N1c2ccccc2CCc2ccccc21,–,inactive: 0.168%
CC(=O)Nc1ccc(S(=O)(=O)N(C)c2nc3ccccc3nc2Cl)cc1,"inconclusive: 14.1 µM [inhibitor, single point]",–
